According to publication PMC8902634:
No constants are given. Whether binding was seen depends on the method and setting. Binding seen in cells or lysates may run through a third protein. Some entries that bind do so weakly or less than the wild type.

Chains of the proteins cited; added tags and fusions are not shown.
UniProt Q969H0: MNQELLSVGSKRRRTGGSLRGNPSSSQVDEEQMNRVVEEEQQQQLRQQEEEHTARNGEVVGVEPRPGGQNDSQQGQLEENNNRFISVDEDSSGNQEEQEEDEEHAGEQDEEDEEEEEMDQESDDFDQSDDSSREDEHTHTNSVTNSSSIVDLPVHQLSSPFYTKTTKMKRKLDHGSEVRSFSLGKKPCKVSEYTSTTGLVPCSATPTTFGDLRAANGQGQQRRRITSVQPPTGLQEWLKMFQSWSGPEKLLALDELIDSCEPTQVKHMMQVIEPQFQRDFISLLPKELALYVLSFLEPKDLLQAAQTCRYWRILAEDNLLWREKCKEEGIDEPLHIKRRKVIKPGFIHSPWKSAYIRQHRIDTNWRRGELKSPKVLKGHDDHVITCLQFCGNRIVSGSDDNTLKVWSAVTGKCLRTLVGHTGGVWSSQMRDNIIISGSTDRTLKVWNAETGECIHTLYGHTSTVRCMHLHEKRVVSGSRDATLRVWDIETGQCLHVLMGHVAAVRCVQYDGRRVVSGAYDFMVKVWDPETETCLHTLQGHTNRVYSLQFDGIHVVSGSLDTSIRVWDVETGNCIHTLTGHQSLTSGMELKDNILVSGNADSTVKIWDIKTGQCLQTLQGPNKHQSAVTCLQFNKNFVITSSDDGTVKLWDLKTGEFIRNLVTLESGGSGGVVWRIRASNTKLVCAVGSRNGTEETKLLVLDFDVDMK

Target: T1, Biglycan (human) (UniProt P21810)
T1 sequence: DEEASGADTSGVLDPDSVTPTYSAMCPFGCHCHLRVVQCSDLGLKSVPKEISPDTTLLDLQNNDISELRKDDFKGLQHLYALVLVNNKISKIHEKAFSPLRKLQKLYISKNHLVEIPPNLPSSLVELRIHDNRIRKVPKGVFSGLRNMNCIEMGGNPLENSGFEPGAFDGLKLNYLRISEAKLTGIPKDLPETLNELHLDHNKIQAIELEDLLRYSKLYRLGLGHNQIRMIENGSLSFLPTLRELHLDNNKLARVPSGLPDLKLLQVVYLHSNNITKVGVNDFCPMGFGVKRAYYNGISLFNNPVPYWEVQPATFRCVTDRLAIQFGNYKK
Assay: co-IP; HGC-27 cell lysate (co-IP kit, ice-cold lysis buffer); immunoprecipitates of BGN and input (20%) separated by SDS-PAGE, Western blotting

binding: binds
Substance: F-box and WD repeat domain-containing 7 (from UniProt Q969H0 1-707)
